In experiment [1] the target is Low density lipoprotein receptor (LDLR), in HepG2 cells (human (endogenous in HepG2)) (UniProt P01130). As to the kind of experiment: co-IP; as a1 at pH 7.4, with 10 μg/ml Fab fragments (5F6, 12E3 or J16) added to the IPs.
Experiment [2] shares this target. Nature of the experiment: co-IP; HepG2 cells lysed directly on the plate (compared with Accutase harvest; also Neg or LDLR siRNA treated cells); coIP buffer 20mM Hepes pH 7.4, 20mM CaCl2, 150mM NaCl, 0.1% Triton x-100; 10 μg/ml J16, anti-LDLR, anti-APLP2 or IC antibody with mAb select protein A beads overnight; western blot. A general note: A western blot detects proteins with antibodies after separation by electrophoresis.

The target of a further experiment is LDLR-ECD-6xHis (UniProt P01130). Nature of the experiment: ELISA; MaxiSorp plates coated with 5 μg/ml LDLR-ECD, APLP2-ECD at varying concentrations, pH 7.4; also 5 μg/ml APLP2-ECD with increasing PCSK9; detected with mouse anti-human APLP2 and goat anti-mouse HRP; both purified. For orientation: An ELISA detects its analyte on a solid surface through an enzyme-linked reagent.

These are yes or no findings as the source states them, for the method shown. For part of these data: In cells and extracts the contact can be indirect. Some entries that bind do so weakly or less than the wild type.

Take “Amyloid precursor like protein 2 (APLP2), in HepG2 cells (from UniProt Q06481 32-763)”: the binding result in experiment [1] and in experiment [2] was “binds” throughout.
In the case of “Recombinant APLP2-ECD (from UniProt Q06481 32-692) (domain or fragment)”, the binding result in the experiment with LDLR-ECD-6xHis was “binds”.

These data come from PMC4408062.
